Test: general procedure: solution-phase peptide synthesis; EDC.HCl/HOBt

Substance | step yield (late stage modification step) | step yield (coupling step)
(1S,3aR,6aS)-2-((S)-2-((S)-2-cyclohexyl-2-(pyrazine-2-carboxamido)acetamido)-3,3-dimethylbutanoyl)-N-((S)-1-(cyclopropylamino)-1,2-dioxohexan-3-yl)octahydrocyclopenta[c]pyrrole-1-carboxamide (Telaprevir) | 71% | –
(1S,3aR,6aS)-2-((S)-2-((S)-2-cyclohexyl-2-(pyrazine-2-carboxamido)acetamido)-3,3-dimethylbutanoyl)-N-((S)-1-(cyclopropylamino)-2-hydroxy-1-oxohexan-3-yl)octahydrocyclopenta[c]pyrrole-1-carboxamide | – | 94%
